Results taken from the supplement of paper PMC10849652.
The list shows a part of the results.

Protein sequences, listed by entry. Tags and fused reporters are not part of them. Lines headed by an entry give the natural chain unless they say otherwise; changes in a name come on top.
UniProt Q01974, whole entry, looked up: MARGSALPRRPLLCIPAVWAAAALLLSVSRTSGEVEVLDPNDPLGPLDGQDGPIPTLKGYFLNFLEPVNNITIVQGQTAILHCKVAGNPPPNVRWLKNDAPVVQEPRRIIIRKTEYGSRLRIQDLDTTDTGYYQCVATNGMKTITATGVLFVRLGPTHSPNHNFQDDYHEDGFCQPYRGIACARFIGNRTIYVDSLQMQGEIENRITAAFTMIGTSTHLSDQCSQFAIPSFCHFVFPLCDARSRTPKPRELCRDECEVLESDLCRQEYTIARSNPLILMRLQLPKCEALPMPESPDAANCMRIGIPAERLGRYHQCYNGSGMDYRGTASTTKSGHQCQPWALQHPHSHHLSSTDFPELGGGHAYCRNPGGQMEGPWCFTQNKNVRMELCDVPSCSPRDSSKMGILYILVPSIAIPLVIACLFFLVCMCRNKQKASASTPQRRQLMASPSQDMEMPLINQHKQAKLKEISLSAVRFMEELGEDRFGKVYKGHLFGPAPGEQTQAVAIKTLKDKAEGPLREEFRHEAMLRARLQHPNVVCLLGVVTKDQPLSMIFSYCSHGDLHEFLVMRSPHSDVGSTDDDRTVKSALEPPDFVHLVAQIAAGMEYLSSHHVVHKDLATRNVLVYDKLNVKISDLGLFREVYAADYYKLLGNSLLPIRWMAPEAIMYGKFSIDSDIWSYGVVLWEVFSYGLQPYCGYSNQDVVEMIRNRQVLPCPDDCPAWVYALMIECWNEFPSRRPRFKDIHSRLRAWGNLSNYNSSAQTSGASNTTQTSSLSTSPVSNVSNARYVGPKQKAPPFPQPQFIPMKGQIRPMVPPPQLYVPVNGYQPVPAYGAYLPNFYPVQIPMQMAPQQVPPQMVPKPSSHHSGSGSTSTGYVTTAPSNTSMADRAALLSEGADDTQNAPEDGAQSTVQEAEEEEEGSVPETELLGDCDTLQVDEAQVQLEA
UniProt O43148, whole entry, looked up: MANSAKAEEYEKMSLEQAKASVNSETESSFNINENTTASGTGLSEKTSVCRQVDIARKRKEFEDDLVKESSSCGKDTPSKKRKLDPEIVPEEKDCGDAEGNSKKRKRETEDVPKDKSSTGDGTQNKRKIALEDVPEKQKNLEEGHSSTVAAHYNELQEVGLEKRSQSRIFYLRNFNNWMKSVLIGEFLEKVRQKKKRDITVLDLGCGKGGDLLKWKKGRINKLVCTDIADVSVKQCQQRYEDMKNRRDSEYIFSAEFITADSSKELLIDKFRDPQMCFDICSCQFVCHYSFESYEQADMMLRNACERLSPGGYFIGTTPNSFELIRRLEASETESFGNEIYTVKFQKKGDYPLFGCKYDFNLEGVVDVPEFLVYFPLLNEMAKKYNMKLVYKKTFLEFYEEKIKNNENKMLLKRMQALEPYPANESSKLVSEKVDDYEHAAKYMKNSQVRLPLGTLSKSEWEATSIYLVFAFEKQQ
UniProt O75116: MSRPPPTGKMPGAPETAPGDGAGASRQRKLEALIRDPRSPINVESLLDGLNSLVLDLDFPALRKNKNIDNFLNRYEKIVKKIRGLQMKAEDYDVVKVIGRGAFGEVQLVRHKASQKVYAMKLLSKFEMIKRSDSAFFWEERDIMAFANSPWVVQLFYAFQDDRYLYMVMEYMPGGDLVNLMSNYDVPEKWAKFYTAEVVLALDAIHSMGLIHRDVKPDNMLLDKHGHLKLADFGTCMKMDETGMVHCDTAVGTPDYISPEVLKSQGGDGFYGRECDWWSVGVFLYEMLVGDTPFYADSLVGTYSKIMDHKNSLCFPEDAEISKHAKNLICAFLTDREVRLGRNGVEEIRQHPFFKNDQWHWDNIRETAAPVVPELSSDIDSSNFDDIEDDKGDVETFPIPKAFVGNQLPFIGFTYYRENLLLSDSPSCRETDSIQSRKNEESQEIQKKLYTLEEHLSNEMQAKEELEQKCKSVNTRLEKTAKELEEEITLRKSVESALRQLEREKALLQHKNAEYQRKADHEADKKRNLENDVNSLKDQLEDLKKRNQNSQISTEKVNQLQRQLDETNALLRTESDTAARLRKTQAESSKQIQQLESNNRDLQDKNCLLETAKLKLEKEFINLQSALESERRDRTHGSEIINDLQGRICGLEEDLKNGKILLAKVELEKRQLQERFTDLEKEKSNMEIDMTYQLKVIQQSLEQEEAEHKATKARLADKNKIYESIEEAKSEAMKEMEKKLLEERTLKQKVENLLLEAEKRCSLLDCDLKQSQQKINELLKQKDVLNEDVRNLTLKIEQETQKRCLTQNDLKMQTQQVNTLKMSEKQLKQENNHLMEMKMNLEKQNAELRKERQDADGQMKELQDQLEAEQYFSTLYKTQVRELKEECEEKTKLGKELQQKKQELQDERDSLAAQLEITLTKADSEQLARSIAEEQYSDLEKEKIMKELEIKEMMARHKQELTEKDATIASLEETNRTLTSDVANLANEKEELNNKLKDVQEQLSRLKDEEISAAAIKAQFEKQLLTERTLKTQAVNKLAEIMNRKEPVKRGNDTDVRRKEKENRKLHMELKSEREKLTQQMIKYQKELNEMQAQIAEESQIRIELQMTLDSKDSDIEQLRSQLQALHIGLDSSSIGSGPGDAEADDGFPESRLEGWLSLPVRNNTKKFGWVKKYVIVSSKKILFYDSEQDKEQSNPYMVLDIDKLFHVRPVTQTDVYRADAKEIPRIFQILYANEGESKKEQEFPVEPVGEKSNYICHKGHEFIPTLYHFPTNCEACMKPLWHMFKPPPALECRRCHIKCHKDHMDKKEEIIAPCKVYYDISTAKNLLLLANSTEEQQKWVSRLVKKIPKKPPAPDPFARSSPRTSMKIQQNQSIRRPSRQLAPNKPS
UniProt Q99496: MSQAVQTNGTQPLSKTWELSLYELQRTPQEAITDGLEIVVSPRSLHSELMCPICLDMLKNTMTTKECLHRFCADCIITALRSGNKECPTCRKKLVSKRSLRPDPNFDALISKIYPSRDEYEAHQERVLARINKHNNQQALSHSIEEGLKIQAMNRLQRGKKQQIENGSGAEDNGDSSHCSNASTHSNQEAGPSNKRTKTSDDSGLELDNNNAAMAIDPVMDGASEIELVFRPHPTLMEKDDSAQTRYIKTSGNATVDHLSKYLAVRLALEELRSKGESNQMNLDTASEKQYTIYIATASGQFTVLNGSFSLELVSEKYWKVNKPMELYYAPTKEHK
UniProt P08922: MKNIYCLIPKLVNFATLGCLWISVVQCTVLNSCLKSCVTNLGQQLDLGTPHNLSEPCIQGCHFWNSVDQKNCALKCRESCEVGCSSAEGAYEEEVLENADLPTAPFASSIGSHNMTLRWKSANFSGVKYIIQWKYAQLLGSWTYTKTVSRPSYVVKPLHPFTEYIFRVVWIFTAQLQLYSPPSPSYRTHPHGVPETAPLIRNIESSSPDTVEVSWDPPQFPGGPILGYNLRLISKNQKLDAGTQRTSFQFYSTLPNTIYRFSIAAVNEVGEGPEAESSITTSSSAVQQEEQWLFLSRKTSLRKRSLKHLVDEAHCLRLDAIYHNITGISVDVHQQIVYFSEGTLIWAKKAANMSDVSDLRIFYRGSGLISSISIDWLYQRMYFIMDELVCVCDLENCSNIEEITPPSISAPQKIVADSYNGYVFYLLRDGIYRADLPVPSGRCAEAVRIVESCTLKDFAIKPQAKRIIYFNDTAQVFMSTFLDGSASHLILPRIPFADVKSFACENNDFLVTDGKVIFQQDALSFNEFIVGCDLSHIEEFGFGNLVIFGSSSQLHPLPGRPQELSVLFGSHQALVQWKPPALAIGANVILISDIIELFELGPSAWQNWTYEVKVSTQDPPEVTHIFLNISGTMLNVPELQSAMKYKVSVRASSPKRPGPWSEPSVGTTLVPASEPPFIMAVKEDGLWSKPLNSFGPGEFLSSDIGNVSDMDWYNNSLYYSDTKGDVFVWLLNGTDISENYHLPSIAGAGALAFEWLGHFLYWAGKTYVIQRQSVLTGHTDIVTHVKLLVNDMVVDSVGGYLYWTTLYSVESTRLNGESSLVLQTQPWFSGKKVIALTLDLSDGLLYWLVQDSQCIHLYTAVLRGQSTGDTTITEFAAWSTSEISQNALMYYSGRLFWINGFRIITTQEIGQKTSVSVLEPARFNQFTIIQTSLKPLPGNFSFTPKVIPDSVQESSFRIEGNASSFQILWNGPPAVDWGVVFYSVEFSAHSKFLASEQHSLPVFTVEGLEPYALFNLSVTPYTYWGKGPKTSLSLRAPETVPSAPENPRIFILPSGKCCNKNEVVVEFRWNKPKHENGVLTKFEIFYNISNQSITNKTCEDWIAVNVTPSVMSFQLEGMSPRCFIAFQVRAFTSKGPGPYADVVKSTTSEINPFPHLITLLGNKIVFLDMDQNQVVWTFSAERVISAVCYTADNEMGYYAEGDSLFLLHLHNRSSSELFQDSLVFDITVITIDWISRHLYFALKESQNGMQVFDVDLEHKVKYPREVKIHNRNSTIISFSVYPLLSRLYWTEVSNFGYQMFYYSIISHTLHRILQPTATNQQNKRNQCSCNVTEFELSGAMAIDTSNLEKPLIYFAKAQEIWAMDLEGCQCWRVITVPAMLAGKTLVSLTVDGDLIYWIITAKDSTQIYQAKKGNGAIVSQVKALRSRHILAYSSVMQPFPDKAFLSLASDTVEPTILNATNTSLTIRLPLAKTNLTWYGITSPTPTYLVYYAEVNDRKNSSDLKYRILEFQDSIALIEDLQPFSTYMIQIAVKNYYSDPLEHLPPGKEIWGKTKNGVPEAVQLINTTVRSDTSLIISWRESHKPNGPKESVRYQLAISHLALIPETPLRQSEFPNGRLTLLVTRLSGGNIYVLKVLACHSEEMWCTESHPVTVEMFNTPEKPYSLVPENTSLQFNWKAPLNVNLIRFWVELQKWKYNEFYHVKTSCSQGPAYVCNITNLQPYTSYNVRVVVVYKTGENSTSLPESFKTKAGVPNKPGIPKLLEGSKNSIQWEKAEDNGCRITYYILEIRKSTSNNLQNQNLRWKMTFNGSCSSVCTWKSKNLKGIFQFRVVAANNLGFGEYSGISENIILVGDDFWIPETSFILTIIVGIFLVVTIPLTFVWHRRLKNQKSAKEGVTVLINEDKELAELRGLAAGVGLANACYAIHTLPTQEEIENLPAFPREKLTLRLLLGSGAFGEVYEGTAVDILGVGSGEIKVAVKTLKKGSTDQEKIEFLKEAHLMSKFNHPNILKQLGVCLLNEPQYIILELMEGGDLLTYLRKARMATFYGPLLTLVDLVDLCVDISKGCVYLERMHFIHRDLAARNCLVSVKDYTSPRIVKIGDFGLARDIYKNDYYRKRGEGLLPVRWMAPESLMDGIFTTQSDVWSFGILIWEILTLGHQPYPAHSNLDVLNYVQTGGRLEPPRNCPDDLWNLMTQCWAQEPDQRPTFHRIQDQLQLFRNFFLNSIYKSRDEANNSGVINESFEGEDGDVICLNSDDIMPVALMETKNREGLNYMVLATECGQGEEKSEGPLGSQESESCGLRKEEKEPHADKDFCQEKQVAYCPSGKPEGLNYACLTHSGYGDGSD
UniProt Q96LT9: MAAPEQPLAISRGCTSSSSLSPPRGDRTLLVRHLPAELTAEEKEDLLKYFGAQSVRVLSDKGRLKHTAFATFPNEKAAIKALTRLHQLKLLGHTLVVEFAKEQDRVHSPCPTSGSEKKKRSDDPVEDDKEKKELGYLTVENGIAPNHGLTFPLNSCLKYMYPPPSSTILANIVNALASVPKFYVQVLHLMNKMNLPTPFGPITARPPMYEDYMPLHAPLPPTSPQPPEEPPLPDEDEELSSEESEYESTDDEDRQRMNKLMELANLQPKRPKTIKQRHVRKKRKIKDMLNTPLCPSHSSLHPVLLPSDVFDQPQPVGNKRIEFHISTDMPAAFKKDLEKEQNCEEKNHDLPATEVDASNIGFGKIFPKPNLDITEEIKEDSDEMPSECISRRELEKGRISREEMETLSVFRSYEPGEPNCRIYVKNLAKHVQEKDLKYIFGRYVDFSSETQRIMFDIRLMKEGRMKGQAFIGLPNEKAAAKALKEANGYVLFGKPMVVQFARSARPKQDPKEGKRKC

Key:
Experiment in all cases: log2 fold change, soluble protein after heating vs DMSO (PISA); higher = thermal stabilisation; K562 lysate, 10 uM; active = over 0.2 and 3.5 SD of the protein, either way, in both replicates (recomputed)
[1] = compound: Cc1cn(-c2cc(NC(=O)c3ccc(C)c(Nc4nccc(-c5cccnc5)n4)c3)cc(C(F)(F)F)c2)cn1 [nilotinib]
Method in brief: (§1)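 Dounce homogenisation of K562 pellets in PBS pH 7.4 with 1 mM MgCl2 produced a crude extract, used at 1 mg/mL protein. Exposure to 10 μM compound lasted 30 min, and aliquots were then heated for 3 min across 48°C-58°C, pooled and brought to 0.5% NP-40 at 4°C. The supernatant after 21,000xg for 90 min was quantified by TMTpro 16plex LC-MS/MS with channel sums equalised. Duplicate values are given as log-two fold change in thermal stability relative to solvent controls.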

[2] = compound: Cc1nc(Nc2n[nH]c3c2CN(C(=O)N[C@H](CN(C)C)c2ccccc2)C3(C)C)c2sccc2n1
Method in brief: as §1

[3] = compound: Cc1nc(Nc2ncc(C(=O)Nc3c(C)cccc3Cl)s2)cc(N2CCN(CCO)CC2)n1 [dasatinib]
Method in brief: as §1

[4] = compound: Cc1ncc(-c2ccnc(Nc3ccc(S(C)(=O)=O)cc3)n2)n1C(C)C
Method in brief: as §1

[5] = compound: Cn1cc(-c2ccc3c(c2)CCN3C(=O)Cc2cccc(C(F)(F)F)c2)c2c(N)ncnc21
Method in brief: as §1

[6] = compound: Cn1cc(CNCC2CCN(c3ncc(C(=O)NO)cn3)CC2)c2ccccc21 [quisinostat]
Method in brief: as §1

[7] = compound: Cn1cncc1[C@@](N)(c1ccc(Cl)cc1)c1ccc2c(c1)c(-c1cccc(Cl)c1)cc(=O)n2C [tipifarnib]
Method in brief: as §1

[8] = compound: NC(=O)Nc1cc(-c2cccc(F)c2)sc1C(=O)N[C@H]1CCCNC1
Method in brief: as §1

[9] = compound: NC(=O)c1cnc(N[C@@H]2CCCC[C@@H]2N)nc1Nc1cccc(-n2nccn2)c1
Method in brief: as §1

[10] = compound: NC1(c2ccc(-c3nc4ccn5c(=O)[nH]nc5c4cc3-c3ccccc3)cc2)CCC1
Method in brief: as §1

[11] = compound: NCC(=O)Nc1ccc(-n2nc(C(F)(F)F)cc2-c2ccc3c(ccc4ccccc43)c2)cc1
Method in brief: as §1

[12] = compound: O=C(CCCCCCC(=O)Nc1ccccc1)NO [vorinostat]
Method in brief: as §1

[13] = compound: O=C(O)c1ccc2c(c1)nc(Nc1cccc(Cl)c1)c1ccncc12 [silmitasertib]
Method in brief: as §1

[14] = compound: O=C1NC(=O)C(c2cnc3ccccn23)=C1c1cn2c3c(cc(F)cc13)CN(C(=O)N1CCCCC1)CC2
Method in brief: as §1

[15] = compound: c1cn2cc(-c3ccc4cn[nH]c4c3)nc(Nc3ccc(N4CCOCC4)cc3)c2n1 [entospletinib]
Method in brief: as §1

Target | log2 fold change [1] | log2 fold change [2] | log2 fold change [3] | log2 fold change [4] | log2 fold change [5] | log2 fold change [6] | log2 fold change [7] | log2 fold change [8] | log2 fold change [9] | log2 fold change [10] | log2 fold change [11] | log2 fold change [12] | log2 fold change [13] | log2 fold change [14] | log2 fold change [15]
ROR2 (UniProt Q01974) | inactive: 0.029 | inactive: 0.016 | inactive: 0.021 | inactive: -0.09 | inactive: 0.002 | inactive: -0.15 | inactive: -0.039 | inactive: 0.059 | inactive: 0.02 | inactive: 0.036 | inactive: -0.066 | inactive: -0.062 | inactive: 0.03 | inactive: 0.037 | inactive: -0.021
RNMT isoform 2 (UniProt O43148) | inactive: 0.006 | inactive: 0.008 | inactive: 0 | inactive: 0.033 | inactive: 0.029 | inactive: 0.001 | inactive: -0.019 | inactive: 0.013 | inactive: 0.014 | inactive: 0.009 | inactive: 0.001 | inactive: 0.016 | inactive: -0.054 | inactive: 0.009 | inactive: -0.041
ROCK2 (UniProt O75116) | inactive: -0.009 | inactive: 0.035 | inactive: 0.015 | inactive: 0.02 | inactive: 0.039 | inactive: -0.012 | inactive: -0.014 | inactive: 0.137 | inactive: 0.052 | inactive: 0.001 | inactive: -0.003 | inactive: -0.116 | inactive: 0.003 | inactive: -0.042 | inactive: -0.042
RNF2 (UniProt Q99496) | inactive: 0.026 | inactive: -0.047 | inactive: -0.07 | inactive: 0.027 | inactive: -0.025 | inactive: 0.154 | inactive: -0.124 | inactive: -0.015 |  | inactive: -0.05 | inactive: -0.015 | inactive: -0.037 | inactive: 0.021 | inactive: 0.008 | inactive: -0.033
RPL26 (UniProt P61254) | inactive: 0.038 | inactive: 0.029 | inactive: 0.03 | inactive: 0.202 | inactive: -0.062 | inactive: 0.125 | inactive: -0.031 | inactive: -0.037 | inactive: 0.006 | inactive: -0.147 | inactive: -0.008 | inactive: 0.07 | inactive: 0.104 | inactive: 0.082 | inactive: -0.076
ROS1 (UniProt P08922) | inactive: -0.166 | inactive: 0.054 | inactive: 0.083 | inactive: 0.045 | inactive: 0.08 | inactive: -0.109 | inactive: 0.02 | inactive: 0.086 | inactive: -0.06 |  | inactive: 0.025 |  |  | inactive: -0.009 | inactive: 0.073
RPL13A (UniProt P40429) | inactive: 0.025 | inactive: -0.04 | inactive: -0.006 | inactive: 0.008 | inactive: 0.012 | inactive: 0.016 | inactive: 0.01 | inactive: -0.021 | inactive: -0.005 | inactive: 0.025 | inactive: 0.01 | inactive: 0.075 | inactive: 0.024 | inactive: -0.043 | inactive: 0.014
RNPC3 (UniProt Q96LT9) | inactive: -0.104 | inactive: 0.069 | inactive: 0.042 | inactive: 0.01 | inactive: -0.061 | inactive: -0.071 | inactive: -0.075 | inactive: -0.063 | inactive: -0.056 | inactive: 0.06 |  | active: -0.488 | inactive: 0.145 | inactive: 0.036 | 
RPL18 (UniProt Q07020) | inactive: -0.019 | inactive: 0.017 | inactive: 0.049 | inactive: -0.032 | inactive: 0.01 | inactive: 0.017 | inactive: 0.005 | inactive: -0.028 | inactive: -0.015 | inactive: -0.019 | inactive: 0.007 | inactive: 0.074 | inactive: 0.025 | inactive: 0.03 | inactive: 0.011

Part of the list above, as tab-separated lines.
Target	log2 fold change [1]	log2 fold change [2]	log2 fold change [3]	log2 fold change [4]	log2 fold change [5]	log2 fold change [6]	log2 fold change [7]	log2 fold change [8]	log2 fold change [9]	log2 fold change [10]	log2 fold change [11]	log2 fold change [12]	log2 fold change [13]	log2 fold change [14]	log2 fold change [15]
ROCK2 (UniProt O75116)	inactive: -0.009	inactive: 0.035	inactive: 0.015	inactive: 0.02	inactive: 0.039	inactive: -0.012	inactive: -0.014	inactive: 0.137	inactive: 0.052	inactive: 0.001	inactive: -0.003	inactive: -0.116	inactive: 0.003	inactive: -0.042	inactive: -0.042
RNF2 (UniProt Q99496)	inactive: 0.026	inactive: -0.047	inactive: -0.07	inactive: 0.027	inactive: -0.025	inactive: 0.154	inactive: -0.124	inactive: -0.015		inactive: -0.05	inactive: -0.015	inactive: -0.037	inactive: 0.021	inactive: 0.008	inactive: -0.033
